Measurements reported in PubChem BioAssay AID504804 (Drosophila RNAi Screening Center, 2011)

Assay: 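Fly genes whose loss lessens doxorubicin-driven cell death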 (primary screen)
Cell system: Drosophila Kc cells
Knock-down reagent: long dsRNA against Drosophila genes, 0.5 µg dsRNA per well
Timing: 96 h (48 h knock-down, then 48 h drug)
Challenge: doxorubicin 5 µg/ml for 48 h, added 48 h after dsRNA
Measurement: 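Viability measured as cellular ATP by luminescence after 48 h knock-down then 48 h doxorubicin at 5 µg/ml; unnormalised plate counts for each replicate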
Reading the numbers: raw ATP luminescence: higher = more viable cells, protection from doxorubicin
Rule for the call: 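Active when both duplicate wells lie at least 2 SD above the plate mean and protection is confirmed by rescreening and independent dsRNAs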
The screen tested about 19,000 reagents; shown is a random part of those that have a named target and a result. Of all reagents, 47 (0.25%) are marked active. 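Signals are raw, not normalised; exact z-scores behind calls not deposited; actives needed confirmation, so some wells reaching 2 SD are inactive.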 A number with no mark means an inactive call. Names joined by + are all predicted targets of the reagent.

| target gene | amplicon | SD above plate mean | raw ATP luminescence, replicate 1 | raw ATP luminescence, replicate 2 |
| --- | --- | --- | --- | --- |
| Snr1 | DRSC12369 | – | 64173 | 30603 |
| IntS14 | DRSC00668 | – | 1.14e5 | 63930 |
| CG17996 + Tsen2 | DRSC02650 | – | 73550 | 57307 |
| Mst57Dc | DRSC16745 | – | 58560 | 52180 |
| sim | DRSC17054 | – | 80670 | 75450 |
| CG8001 | DRSC08611 | – | 54123 | 52227 |
| Rbbp5 | DRSC11778 | – | 59027 | 63130 |
| zip | DRSC04725 | – | 47913 | 53050 |
| CG7492 | DRSC10855 | – | 30663 | 30973 |
| Hacd2 | DRSC03181 | – | 56067 | 1.16e5 |
| ND4 (retired record) | DRSC21269 | – | 3.24e5 | 2.85e5 |
| dom | DRSC04558 | – | 78557 | 73177 |
| dom | DRSC04559 | – | 42167 | 38173 |
| CG31099 | DRSC14252 | – | 72190 | 54430 |
| pdm3 | DRSC06076 | – | 40150 | 75320 |
| pdm3 | DRSC06490 | – | 38350 | 63877 |
| Rpn9 | DRSC16840 | – | 46967 | 35757 |
| CG13954 | DRSC06442 | – | 60397 | 79383 |
| sNPF | DRSC02309 | – | 49190 | 48890 |
| CG3803 | DRSC04420 | – | 41783 | 62550 |
| Rfk | DRSC15454 | – | 53850 | 55350 |
| Gbs-70E | DRSC11055 | – | 36017 | 33970 |
| MED18 | DRSC18549 | – | 48210 | 47660 |
| Cpr65Eb | DRSC11026 | – | 82973 | 83173 |
| Ufl1 | DRSC12527 | – | 71520 | 22880 |
| Vps50 | DRSC06910 | – | 53563 | 52137 |
| tko | DRSC18844 | – | 49570 | 22330 |
| CG12420 | DRSC14514 | – | 57053 | 45940 |
| CG9154 | DRSC03150 | – | 1.21e5 | 71057 |
| CG15594 | DRSC12280 | at least 2 SD above plate mean (active) | 81530 | 85593 |
| CG42816 + CG42815 | DRSC11230 | – | 36053 | 27700 |
| CG40191 | DRSC21041 | – | 2.05e5 | 2.12e5 |
| disco-r | DRSC20173 | – | 4.06e5 | 3.76e5 |
| disco-r | DRSC20174 | – | 3.74e5 | 3.91e5 |
| Dpit47 | DRSC04985 | – | 47930 | 80193 |
| Sras | DRSC11287 | – | 75367 | 95010 |
| SkpE | DRSC19431 | – | 3.16e5 | 3.02e5 |
| CG33251 (retired record) + CG9915 | DRSC20217 | – | 2.96e5 | 2.99e5 |
| CG31523 | DRSC12009 | – | 50240 | 57090 |
| CG31523 | DRSC12337 | – | 29187 | 29053 |
| Ugt37B1 | DRSC03225 | – | 36923 | 32877 |
| mthl15 | DRSC01120 | – | 3.19e5 | 3.03e5 |
| didum | DRSC07603 | – | 29080 | 66440 |
| CG13775 | DRSC02279 | – | 29453 | 34740 |
| CG4367 | DRSC15568 | – | 42420 | 40010 |
| CG42445 | DRSC10858 | – | 30840 | 33350 |
| Rab19 | DRSC11260 | – | 56420 | 65797 |
| CG8788 | DRSC07267 | – | 54213 | 79183 |
| SMC2 | DRSC07544 | – | 69850 | 61637 |
| CG10949 | DRSC02112 | – | 93287 | 86957 |
| CG13384 | DRSC02258 | – | 1.58e5 | 82633 |

Continued, starting with the last 7 of the part before.
| target gene | amplicon | SD above plate mean | raw ATP luminescence, replicate 1 | raw ATP luminescence, replicate 2 |
| --- | --- | --- | --- | --- |
| CG4367 | DRSC15568 | – | 42420 | 40010 |
| CG42445 | DRSC10858 | – | 30840 | 33350 |
| Rab19 | DRSC11260 | – | 56420 | 65797 |
| CG8788 | DRSC07267 | – | 54213 | 79183 |
| SMC2 | DRSC07544 | – | 69850 | 61637 |
| CG10949 | DRSC02112 | – | 93287 | 86957 |
| CG13384 | DRSC02258 | – | 1.58e5 | 82633 |
| Srg1 | DRSC14640 | – | 60540 | 63000 |
| CG11771 | DRSC14379 | – | 35483 | 49423 |
| CG9391 | DRSC11858 | – | 59037 | 52350 |
| CG18744 | DRSC15381 | – | 66017 | 57313 |
| Ag5r2 | DRSC19328 | – | 4.28e5 | 3.38e5 |
| CNT2 | DRSC07073 | – | 65800 | 48463 |
| Trf4-2 | DRSC15237 | – | 62900 | 60470 |
| CG30431 | DRSC04902 | – | 56080 | 60537 |
| CG30431 | DRSC04904 | – | 69660 | 80030 |
| CG15564 | DRSC15102 | – | 60510 | 64250 |
| bon | DRSC16914 | – | 56810 | 72390 |
| CG4596 | DRSC15608 | – | 81323 | 65893 |
| CG34353 | DRSC14493 | – | 38800 | 49580 |
| CG34353 | DRSC14517 | – | 40830 | 44860 |
| CG34353 | DRSC14563 | – | 72850 | 57990 |
| CG34353 | DRSC15837 | – | 67270 | 63110 |
| egr | DRSC06233 | – | 52477 | 80647 |
| Cht9 | DRSC04079 | – | 88200 | 52583 |
| or | DRSC04329 | – | 42750 | 60000 |
| CG12391 | DRSC06147 | – | 52903 | 58237 |
| Lnpk | DRSC07254 | – | 92583 | 51803 |
| gpp | DRSC12515 | – | 55433 | 62027 |
| gpp | DRSC12516 | – | 44597 | 48117 |
| CG7519 | DRSC11834 | – | 61353 | 62087 |
| CG13992 | DRSC02324 | – | 25910 | 30350 |
| Sox14 | DRSC04656 | – | 56790 | 65937 |
| CG16852 | DRSC01876 | – | 77487 | 77680 |
| CG7715 | DRSC16301 | – | 63940 | 81450 |
| CG15465 | DRSC18048 | – | 45090 | 41750 |
| wor | DRSC03637 | – | 74730 | 68373 |
| Takl2 | DRSC15650 | – | 57070 | 59060 |
| CG14329 | DRSC14808 | – | 1.32e5 | 79500 |
| CG42741 | DRSC04593 | – | 54977 | 46563 |
